{"source": "patent US8361711B2", "about": "“Tools and methods useful in characterising the immunotoxic activity of xenobiotic substances” (National Institute of Public Health and the Environment, …, priority 2004, dated 2013)", "system": "IL-2 reporter cells EL/p1-5′IL2-EGFP/3 and EL/p1-5′IL2-dEGFP/6 (EL4)", "experiment": "Preliminary test of IL-2 reporter cells (FACS, fluorescence microscope, Fluorostar)", "format": "cell-based, mouse", "note": "For at least one compound, name, drawing or mass did not settle the structure."}
{"compound": "CO[C@H]1C[C@@H]2CC[C@@H](C)[C@@](O)(O2)C(=O)C(=O)N2CCCC[C@H]2C(=O)O[C@H]([C@H](C)C[C@@H]2CC[C@@H](O)[C@H](OC)C2)CC(=O)[C@H](C)/C=C(\\C)[C@@H](O)[C@@H](OC)C(=O)[C@H](C)C[C@H](C)/C=C/C=C/C=C/1C", "note": "[Rapamycin]", "values": [{"measurement": "basal GFP expression", "setting": "EL4 derived cells, not activated", "value": "not affected"}, {"measurement": "activation induced GFP expression", "setting": "activation with TPA/ionophore", "value": "did not have any effect"}]}
